From the supplement of paper PMC10849652
Some of the results follow.

Amino acid sequences for entries named in this document (tags omitted). A change or cut given only in a name is not applied to a line headed by its entry.
UniProt Q5JUQ0: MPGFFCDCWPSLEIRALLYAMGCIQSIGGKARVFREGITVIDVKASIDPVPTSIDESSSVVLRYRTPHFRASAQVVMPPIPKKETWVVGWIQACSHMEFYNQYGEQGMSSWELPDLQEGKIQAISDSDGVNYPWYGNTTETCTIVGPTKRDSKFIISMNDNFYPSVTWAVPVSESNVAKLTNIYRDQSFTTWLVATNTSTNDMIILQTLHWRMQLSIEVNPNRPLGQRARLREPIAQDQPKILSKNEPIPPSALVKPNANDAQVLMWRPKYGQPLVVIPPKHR
UniProt Q9Y680: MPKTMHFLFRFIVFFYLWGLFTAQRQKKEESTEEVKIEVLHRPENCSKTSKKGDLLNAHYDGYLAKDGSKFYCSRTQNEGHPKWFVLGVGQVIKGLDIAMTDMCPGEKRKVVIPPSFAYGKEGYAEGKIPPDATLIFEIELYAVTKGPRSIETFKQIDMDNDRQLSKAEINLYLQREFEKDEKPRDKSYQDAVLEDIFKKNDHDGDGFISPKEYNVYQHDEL
UniProt Q13451: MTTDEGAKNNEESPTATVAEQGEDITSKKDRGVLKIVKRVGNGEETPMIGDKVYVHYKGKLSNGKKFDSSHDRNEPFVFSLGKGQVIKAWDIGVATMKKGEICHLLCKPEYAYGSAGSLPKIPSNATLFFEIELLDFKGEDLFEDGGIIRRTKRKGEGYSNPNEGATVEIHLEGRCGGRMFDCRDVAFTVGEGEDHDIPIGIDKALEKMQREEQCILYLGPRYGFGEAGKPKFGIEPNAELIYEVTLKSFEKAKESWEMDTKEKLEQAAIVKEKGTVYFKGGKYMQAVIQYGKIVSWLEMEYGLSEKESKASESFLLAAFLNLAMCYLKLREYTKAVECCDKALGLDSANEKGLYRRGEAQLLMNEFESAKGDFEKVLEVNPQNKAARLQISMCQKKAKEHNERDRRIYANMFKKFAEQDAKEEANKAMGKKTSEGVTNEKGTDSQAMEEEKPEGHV
UniProt Q5T1M5: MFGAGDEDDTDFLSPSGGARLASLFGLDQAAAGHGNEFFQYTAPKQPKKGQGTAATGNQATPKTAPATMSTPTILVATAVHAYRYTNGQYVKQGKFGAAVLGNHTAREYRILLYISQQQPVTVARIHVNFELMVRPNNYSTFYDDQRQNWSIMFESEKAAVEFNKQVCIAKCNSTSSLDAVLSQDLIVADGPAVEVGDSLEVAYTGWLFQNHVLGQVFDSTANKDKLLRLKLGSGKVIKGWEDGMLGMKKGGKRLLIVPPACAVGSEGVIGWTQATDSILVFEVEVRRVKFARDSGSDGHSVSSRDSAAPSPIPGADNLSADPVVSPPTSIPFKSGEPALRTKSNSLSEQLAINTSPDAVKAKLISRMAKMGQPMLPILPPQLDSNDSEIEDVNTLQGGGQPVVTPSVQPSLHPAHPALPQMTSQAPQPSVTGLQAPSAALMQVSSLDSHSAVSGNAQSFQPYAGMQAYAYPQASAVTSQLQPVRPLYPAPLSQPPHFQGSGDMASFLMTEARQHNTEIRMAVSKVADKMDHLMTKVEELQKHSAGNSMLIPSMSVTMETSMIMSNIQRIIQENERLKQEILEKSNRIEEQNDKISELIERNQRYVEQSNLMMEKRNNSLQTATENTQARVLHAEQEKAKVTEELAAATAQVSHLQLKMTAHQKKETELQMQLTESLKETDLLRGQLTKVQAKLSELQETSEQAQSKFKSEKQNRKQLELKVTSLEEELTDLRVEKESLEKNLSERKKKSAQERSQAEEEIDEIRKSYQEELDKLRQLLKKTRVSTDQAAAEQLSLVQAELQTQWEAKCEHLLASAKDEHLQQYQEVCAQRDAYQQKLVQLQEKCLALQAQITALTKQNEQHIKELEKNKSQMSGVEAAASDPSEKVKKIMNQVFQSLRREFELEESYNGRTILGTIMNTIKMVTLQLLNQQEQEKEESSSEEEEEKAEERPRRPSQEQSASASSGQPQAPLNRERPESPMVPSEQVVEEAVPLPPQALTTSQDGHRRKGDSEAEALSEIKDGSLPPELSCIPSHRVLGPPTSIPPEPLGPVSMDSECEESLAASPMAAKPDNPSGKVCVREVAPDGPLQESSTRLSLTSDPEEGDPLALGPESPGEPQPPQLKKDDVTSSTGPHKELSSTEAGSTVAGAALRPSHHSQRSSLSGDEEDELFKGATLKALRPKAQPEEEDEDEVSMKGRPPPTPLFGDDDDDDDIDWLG
UniProt Q00688: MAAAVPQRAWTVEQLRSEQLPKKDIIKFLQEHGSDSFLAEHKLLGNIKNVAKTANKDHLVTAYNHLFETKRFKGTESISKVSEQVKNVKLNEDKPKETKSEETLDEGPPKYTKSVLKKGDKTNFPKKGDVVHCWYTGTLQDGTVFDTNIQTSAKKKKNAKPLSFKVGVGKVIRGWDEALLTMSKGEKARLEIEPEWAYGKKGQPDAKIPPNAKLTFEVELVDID
UniProt Q0JRZ9: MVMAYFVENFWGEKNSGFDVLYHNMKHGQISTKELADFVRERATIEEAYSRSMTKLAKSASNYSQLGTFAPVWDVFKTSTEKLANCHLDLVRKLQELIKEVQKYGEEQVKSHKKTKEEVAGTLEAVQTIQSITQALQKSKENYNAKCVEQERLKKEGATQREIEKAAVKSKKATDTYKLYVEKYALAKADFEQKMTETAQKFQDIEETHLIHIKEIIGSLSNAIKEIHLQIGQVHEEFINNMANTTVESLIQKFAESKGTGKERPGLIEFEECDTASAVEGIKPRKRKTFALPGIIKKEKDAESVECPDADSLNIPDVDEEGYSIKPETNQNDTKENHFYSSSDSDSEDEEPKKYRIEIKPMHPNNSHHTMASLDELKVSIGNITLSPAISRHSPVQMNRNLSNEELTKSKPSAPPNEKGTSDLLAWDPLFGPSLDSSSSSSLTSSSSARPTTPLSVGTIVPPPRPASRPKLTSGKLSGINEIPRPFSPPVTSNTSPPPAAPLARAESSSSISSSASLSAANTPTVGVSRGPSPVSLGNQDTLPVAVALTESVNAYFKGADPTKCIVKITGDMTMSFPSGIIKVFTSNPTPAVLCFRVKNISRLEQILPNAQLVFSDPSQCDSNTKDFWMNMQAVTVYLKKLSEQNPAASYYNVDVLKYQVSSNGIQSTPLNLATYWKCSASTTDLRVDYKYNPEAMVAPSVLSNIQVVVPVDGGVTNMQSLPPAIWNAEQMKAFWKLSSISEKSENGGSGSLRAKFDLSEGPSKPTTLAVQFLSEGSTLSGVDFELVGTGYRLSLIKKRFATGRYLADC
UniProt Q9Y3D6: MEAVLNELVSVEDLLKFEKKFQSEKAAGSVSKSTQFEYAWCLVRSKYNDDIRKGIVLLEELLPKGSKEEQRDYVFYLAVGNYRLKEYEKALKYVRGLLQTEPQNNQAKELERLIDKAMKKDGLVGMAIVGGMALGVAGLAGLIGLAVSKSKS
UniProt Q9H9S5: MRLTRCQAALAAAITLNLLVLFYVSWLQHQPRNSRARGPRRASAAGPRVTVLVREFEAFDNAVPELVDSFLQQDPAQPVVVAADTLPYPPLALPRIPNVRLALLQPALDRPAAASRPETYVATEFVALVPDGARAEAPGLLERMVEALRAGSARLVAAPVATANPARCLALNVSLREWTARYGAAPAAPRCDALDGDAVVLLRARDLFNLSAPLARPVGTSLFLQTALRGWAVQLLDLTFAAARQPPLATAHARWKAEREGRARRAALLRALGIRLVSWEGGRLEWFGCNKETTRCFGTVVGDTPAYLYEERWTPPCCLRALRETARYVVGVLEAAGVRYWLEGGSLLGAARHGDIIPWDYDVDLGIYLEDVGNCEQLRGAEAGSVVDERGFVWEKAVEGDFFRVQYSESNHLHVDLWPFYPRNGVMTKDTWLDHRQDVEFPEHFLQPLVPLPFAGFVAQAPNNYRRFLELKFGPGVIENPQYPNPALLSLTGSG
UniProt Q96CP2: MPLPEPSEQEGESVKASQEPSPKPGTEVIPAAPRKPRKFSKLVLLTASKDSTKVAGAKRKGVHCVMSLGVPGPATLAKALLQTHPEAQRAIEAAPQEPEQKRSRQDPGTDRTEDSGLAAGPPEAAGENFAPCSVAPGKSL
UniProt P98173: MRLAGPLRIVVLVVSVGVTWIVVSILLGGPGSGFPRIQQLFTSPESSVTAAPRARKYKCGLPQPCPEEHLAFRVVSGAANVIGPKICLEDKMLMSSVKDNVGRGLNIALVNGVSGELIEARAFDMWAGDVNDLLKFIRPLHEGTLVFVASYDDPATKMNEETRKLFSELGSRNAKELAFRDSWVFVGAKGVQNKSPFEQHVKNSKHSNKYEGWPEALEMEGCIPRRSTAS
UniProt Q86UX7, whole entry, looked up: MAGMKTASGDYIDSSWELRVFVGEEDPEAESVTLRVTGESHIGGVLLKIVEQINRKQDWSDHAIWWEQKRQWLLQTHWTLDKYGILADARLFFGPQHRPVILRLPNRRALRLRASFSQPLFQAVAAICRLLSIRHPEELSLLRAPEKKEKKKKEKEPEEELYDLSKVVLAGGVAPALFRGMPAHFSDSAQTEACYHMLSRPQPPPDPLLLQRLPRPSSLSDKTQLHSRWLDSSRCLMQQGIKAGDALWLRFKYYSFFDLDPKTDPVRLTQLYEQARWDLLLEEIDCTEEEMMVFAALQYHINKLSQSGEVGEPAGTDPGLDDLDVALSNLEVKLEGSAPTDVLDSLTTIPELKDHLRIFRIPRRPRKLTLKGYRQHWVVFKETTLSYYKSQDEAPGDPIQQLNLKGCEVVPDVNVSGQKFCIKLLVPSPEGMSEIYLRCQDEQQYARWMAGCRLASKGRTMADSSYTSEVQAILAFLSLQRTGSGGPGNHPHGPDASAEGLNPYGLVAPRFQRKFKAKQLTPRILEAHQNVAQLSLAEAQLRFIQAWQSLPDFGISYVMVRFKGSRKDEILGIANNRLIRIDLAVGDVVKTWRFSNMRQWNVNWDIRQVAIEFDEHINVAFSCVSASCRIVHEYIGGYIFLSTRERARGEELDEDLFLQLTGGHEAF
UniProt Q14318: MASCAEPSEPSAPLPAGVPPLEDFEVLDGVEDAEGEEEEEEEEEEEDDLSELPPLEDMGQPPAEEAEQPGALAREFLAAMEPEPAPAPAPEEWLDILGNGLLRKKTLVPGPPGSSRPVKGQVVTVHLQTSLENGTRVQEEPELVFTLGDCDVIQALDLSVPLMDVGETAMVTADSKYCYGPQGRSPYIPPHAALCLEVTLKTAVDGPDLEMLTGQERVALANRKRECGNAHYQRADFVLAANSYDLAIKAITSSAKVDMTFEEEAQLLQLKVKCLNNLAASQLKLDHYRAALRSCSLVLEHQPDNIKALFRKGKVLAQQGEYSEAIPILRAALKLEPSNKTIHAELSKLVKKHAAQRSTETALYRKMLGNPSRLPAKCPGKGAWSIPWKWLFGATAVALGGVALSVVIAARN
UniProt Q9UKB1: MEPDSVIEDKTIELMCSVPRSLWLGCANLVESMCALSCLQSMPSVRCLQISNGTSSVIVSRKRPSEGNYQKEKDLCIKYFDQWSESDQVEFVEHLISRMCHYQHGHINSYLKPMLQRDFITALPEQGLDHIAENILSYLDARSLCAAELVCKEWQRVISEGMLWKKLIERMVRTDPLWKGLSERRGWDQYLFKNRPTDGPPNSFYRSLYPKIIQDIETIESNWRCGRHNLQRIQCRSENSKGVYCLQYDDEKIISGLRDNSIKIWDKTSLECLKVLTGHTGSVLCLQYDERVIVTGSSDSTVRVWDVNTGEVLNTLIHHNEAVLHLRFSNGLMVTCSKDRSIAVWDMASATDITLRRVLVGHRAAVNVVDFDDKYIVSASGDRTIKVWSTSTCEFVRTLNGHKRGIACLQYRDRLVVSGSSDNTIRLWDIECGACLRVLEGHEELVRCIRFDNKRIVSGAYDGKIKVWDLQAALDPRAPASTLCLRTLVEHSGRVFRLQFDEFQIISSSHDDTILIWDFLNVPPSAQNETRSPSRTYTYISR
UniProt Q6P4F2: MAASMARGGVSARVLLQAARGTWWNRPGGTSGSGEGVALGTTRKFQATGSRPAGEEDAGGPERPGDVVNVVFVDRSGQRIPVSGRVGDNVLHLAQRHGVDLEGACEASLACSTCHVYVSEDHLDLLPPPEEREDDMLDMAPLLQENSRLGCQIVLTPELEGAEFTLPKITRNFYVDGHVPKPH
UniProt Q8WU58: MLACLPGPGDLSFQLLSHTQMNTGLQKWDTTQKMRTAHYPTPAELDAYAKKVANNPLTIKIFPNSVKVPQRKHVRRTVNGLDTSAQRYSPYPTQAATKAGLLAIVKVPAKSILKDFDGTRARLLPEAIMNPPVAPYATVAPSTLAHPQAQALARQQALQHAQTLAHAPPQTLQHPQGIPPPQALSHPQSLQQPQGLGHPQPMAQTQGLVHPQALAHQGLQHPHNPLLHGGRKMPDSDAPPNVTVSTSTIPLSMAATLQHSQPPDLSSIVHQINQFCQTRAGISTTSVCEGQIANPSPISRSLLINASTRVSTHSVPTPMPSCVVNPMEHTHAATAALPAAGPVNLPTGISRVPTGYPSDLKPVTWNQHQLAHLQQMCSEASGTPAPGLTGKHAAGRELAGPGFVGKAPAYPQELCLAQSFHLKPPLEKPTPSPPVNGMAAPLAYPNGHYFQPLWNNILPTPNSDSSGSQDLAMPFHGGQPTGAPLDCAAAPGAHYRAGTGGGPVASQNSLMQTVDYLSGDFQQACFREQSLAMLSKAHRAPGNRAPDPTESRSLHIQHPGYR

Columns and labels:
Experiment in all cases: log2 fold change, soluble protein after heating vs DMSO (PISA); higher = thermal stabilisation; K562 cells, 10 uM, 30 min; active = over 0.2 and 3.5 SD of the protein, either way, in both replicates (recomputed)
erlotinib = compound: C#Cc1cccc(Nc2ncnc3cc(OCCOC)c(OCCOC)cc23)c1 [erlotinib]
Outline: (§1)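 K562 cells at 2×10^6 cells/mL were exposed to 10 μM compound for 30 min, then aliquots were heated for 3 min across 48°C-58°C, pooled, and extracted in PBS containing 0.5% NP-40 at 4°C. The supernatant after 21,000xg for 90 min was taken as soluble protein and measured by TMTpro 16plex LC-MS/MS with channel sums equalised. Thermal stability is reported relative to control samples, with values from duplicates. Fold changes are given on a log2 scale.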

[1] = compound: C/C(=N\NC(=O)C1=CC(=CC=C1)S(=O)(=O)N2CCOCC2)/C3=C(C=CC(=C3)Cl)O
Outline: as §1

[2] = compound: C1=CC(=C(C=C1Cl)C2=NC3=NC=CN=C3C(=N2)NC4=CC=NC=C4)F
Outline: as §1

[3] = compound: C1=CC(=CC=C1C2=NC3=C(N2)C=C(C=C3)C(=O)N)OC4=CC=C(C=C4)Cl
Outline: as §1

[4] = compound: C1=CC2=C(C=CC(=C2)/C=C\3/C(=O)NC(=NCC4=CC=CS4)S3)N=C1
Outline: as §1

[5] = compound: C1=CC2=NC=CN=C2C=C1/C=C/3\C(=O)NC(=O)S3
Outline: as §1

[6] = compound: C1=CC=C(C=C1)C2=NC(=C(N2)C3=CC=NC=C3)C4=CC(=C(C=C4)Cl)O
Outline: as §1

[7] = compound: C1=CC=C2C(=C1)C3=NNC4=CC=CC(=C43)C2=O
Outline: as §1

[8] = compound: C1CCN(C1)C(=O)NC2=CC=CC(=C2)NC3=NC=C(C(=N3)NCCC4=CN=CN4)Br
Outline: as §1

[9] = compound: C1CN(CCC1(CC2=CC=C(C=C2)Cl)N)C3=NC=NC4=C3C=CN4
Outline: as §1

Measured: log2 fold change

FAM78A (UniProt Q5JUQ0)
inactive: erlotinib 0.036 | [1] 0.025 | [2] -0.143 | [3] 0.062 | [4] 0.021 | [5] 0.026 | [6] -0.09 | [7] 0.076 | [8] -0.093 | [9] 0.025

FKBP7 (UniProt Q9Y680)
inactive: erlotinib -0.027 | [1] -0.027 | [2] 0.005 | [3] 0.037 | [4] 0 | [5] 0.081 | [6] -0.037 | [7] -0.042 | [8] 0.039 | [9] 0.048

FEM1B (UniProt Q9UK73)
inactive: erlotinib 0.033 | [1] 0.008 | [2] -0.11 | [3] 0.001 | [4] -0.002 | [5] 0.053 | [6] 0.057 | [7] 0.055 | [8] -0.095 | [9] 0.053

FBXO38 (UniProt Q6PIJ6)
inactive: erlotinib 0.216 | [1] 0.184 | [2] -0.06 | [3] -0.007 | [4] 0.181 | [5] 0.072 | [6] -0.076 | [7] -0.005 | [8] -0.056 | [9] -0.014

FKBP5 (UniProt Q13451)
inactive: erlotinib 0.072 | [1] 0.085 | [2] -0.029 | [3] -0.053 | [4] 0.054 | [5] 0.015 | [6] 0.073 | [7] -0.014 | [8] -0.099 | [9] -0.168

FASN (UniProt P49327)
inactive: erlotinib -0.012 | [1] 0.049 | [2] 0.036 | [3] 0.016 | [4] -0.008 | [5] 0.062 | [6] 0.043 | [7] 0.014 | [8] -0.009 | [9] -0.025

FKBP15 (UniProt Q5T1M5)
inactive: erlotinib 0.044 | [1] 0.035 | [2] 0.012 | [3] 0.001 | [4] 0.024 | [5] -0.035 | [6] 0.016 | [7] -0.019 | [8] -0.106 | [9] -0.113

FNTA (UniProt P49354)
inactive: erlotinib 0.245 | [1] -0.033 | [2] 0.116 | [3] -0.017 | [4] 0.075 | [5] -0.009 | [6] 0.051 | [7] -0.034 | [8] 0.065 | [9] 0.106

FBXO7 (UniProt Q9Y3I1)
inactive: erlotinib 0.039 | [1] 0.033 | [2] 0.014 | [3] -0.055 | [4] 0.033 | [5] -0.038 | [6] 0.001 | [7] -0.014 | [8] 0.005 | [9] 0

FHL2 (UniProt Q14192)
inactive: erlotinib -0.002 | [1] -0.017 | [2] 0.003 | [3] 0.005 | [4] -0.078 | [5] 0.07 | [6] -0.05 | [7] -0.086 | [8] 0.002 | [9] 0.108

FARS2 (UniProt O95363)
inactive: erlotinib 0 | [1] 0.081 | [2] -0.046 | [3] 0.061 | [4] -0.03 | [5] -0.018 | [6] 0.014 | [7] 0.065 | [8] 0.084 | [9] -0.057

FLNA (UniProt P21333)
inactive: erlotinib 0.022 | [1] 0.072 | [2] -0.002 | [3] -0.032 | [4] -0.022 | [5] 0.005 | [6] 0.013 | [7] -0.017 | [8] -0.018 | [9] -0.133

FKBP3 (UniProt Q00688)
inactive: erlotinib -0.001 | [1] 0.014 | [2] 0.061 | [3] -0.012 | [4] 0.013 | [5] -0.004 | [6] -0.028 | [7] -0.001 | [8] -0.007 | [9] -0.017

FARSB (UniProt Q9NSD9)
inactive: erlotinib 0.004 | [1] 0.046 | [2] 0 | [3] -0.009 | [4] 0.033 | [5] 0.015 | [6] 0.006 | [7] 0.017 | [8] 0.012 | [9] -0.001

FCHO2 (UniProt Q0JRZ9)
inactive: erlotinib -0.006 | [1] 0.125 | [2] -0.08 | [3] 0.082 | [4] 0.012 | [5] -0.087 | [6] -0.056 | [7] -0.025 | [8] 0.069 | [9] -0.018

Looked up one by one from above (two):
FKBP3 (UniProt Q00688)
inactive: erlotinib -0.001 | [1] 0.014 | [2] 0.061 | [3] -0.012 | [4] 0.013 | [5] -0.004 | [6] -0.028 | [7] -0.001 | [8] -0.007 | [9] -0.017

FARS2 (UniProt O95363)
inactive: erlotinib 0 | [1] 0.081 | [2] -0.046 | [3] 0.061 | [4] -0.03 | [5] -0.018 | [6] 0.014 | [7] 0.065 | [8] 0.084 | [9] -0.057

Remaining list, next part:

FIS1 (UniProt Q9Y3D6)
inactive: erlotinib 0.013 | [1] 0.066 | [2] 0.015 | [3] 0.01 | [4] -0.034 | [5] 0.024 | [6] -0.025 | [7] 0.02 | [8] -0.06 | [9] 0.09

FKRP (UniProt Q9H9S5)
inactive: erlotinib 0.009 | [1] 0.059 | [2] -0.006 | [3] -0.015 | [4] 0.053 | [5] 0.041 | [6] -0.053 | [7] -0.017 | [8] -0.017 | [9] -0.087

FLYWCH2 (UniProt Q96CP2)
inactive: erlotinib 0.02 | [1] 0.014 | [2] 0.047 | [3] 0.028 | [4] -0.048 | [5] -0.009 | [6] -0.075 | [7] 0.031 | [8] -0.027 | [9] 0.07

FARSA (UniProt Q9Y285)
inactive: erlotinib 0.021 | [1] 0.069 | [2] -0.013 | [3] -0.006 | [4] 0.058 | [5] -0.002 | [6] 0.065 | [7] 0.034 | [8] -0.031 | [9] -0.029

FAM3A (UniProt P98173)
inactive: erlotinib -0.064 | [1] 0.118 | [2] -0.067 | [3] 0.029 | [4] 0.059 | [5] 0.082 | [6] 0.083 | [7] -0.05 | [8] -0.044 | [9] 0.059

FERMT3 (UniProt Q86UX7)
inactive: erlotinib 0.019 | [1] 0.076 | [2] 0.091 | [3] -0.003 | [4] 0.028 | [5] 0.02 | [6] 0.011 | [7] 0.008 | [8] -0.006 | [9] 0.012

FAM234B (UniProt A2RU67)
inactive: erlotinib -0.053 | [1] -0.033 | [3] -0.077 | [4] -0.401 | [5] 0.029 | [6] 0.039 | [7] 0.099 | [8] 0.109 | [9] -0.112

FLNB isoform 8 (UniProt O75369)
inactive: erlotinib -0.023 | [1] 0.046 | [2] 0.037 | [3] -0.005 | [4] 0.007 | [5] 0.018 | [6] -0.025 | [7] -0.018 | [8] -0.002 | [9] -0.048

FLCN (UniProt Q8NFG4)
inactive: erlotinib 0.24 | [1] -0.013 | [2] -0.079 | [3] 0.338 | [4] 0.034 | [6] -0.21 | [7] -0.053 | [8] -0.069 | [9] -0.038

FKBP8 isoform 2 (UniProt Q14318)
inactive: erlotinib 0.02 | [1] 0.037 | [2] -0.238 | [3] 0.017 | [4] 0 | [5] -0.092 | [6] 0.038 | [7] 0.061 | [8] -0.096 | [9] -0.133

FH (UniProt P07954)
inactive: erlotinib -0.015 | [1] 0.036 | [2] 0.044 | [3] -0.01 | [4] 0.026 | [5] 0.073 | [6] 0.039 | [7] 0 | [8] 0.02 | [9] 0.015

FAM76A isoform 3 (UniProt Q8TAV0)
inactive: erlotinib 0.077 | [1] -0.063 | [2] 0.05 | [3] 0.009 | [4] 0.006 | [5] -0.147 | [7] 0.085 | [8] 0.1 | [9] 0.062

FGB (UniProt P02675)
inactive: erlotinib -0.047 | [1] -0.062 | [3] 0.12 | [4] 0.146 | [5] -0.031 | [6] -0.138 | [7] -0.019 | [8] 0.077 | [9] 0.132

FBXW11 (UniProt Q9UKB1)
inactive: erlotinib 0.036 | [1] -0.211 | [3] 0.11 | [4] 0.148 | [6] -0.046 | [7] -0.005 | [8] -0.018 | [9] 0.147

FDX2 (UniProt Q6P4F2)
inactive: erlotinib 0.1 | [1] 0.017 | [2] -0.081 | [3] -0.043 | [4] 0.061 | [5] 0.07 | [6] -0.017 | [7] -0.037 | [8] -0.035 | [9] -0.119

FAM222B (UniProt Q8WU58)
inactive: erlotinib 0.169 | [1] -0.166 | [2] 0.186 | [3] -0.125 | [4] -0.196 | [6] -0.271 | [7] 0.426 | [8] 0.077 | [9] -0.106
